Experimental data: patent publication US20210324109A1
No constants are given. Whether binding was seen depends on the method and setting. Some entries that bind do so weakly or less than the wild type.

Sequences of proteins named here, by UniProt entry; tags and fusion partners are left off. Residues count along the entry.
UniProt P00742, residues 41-488: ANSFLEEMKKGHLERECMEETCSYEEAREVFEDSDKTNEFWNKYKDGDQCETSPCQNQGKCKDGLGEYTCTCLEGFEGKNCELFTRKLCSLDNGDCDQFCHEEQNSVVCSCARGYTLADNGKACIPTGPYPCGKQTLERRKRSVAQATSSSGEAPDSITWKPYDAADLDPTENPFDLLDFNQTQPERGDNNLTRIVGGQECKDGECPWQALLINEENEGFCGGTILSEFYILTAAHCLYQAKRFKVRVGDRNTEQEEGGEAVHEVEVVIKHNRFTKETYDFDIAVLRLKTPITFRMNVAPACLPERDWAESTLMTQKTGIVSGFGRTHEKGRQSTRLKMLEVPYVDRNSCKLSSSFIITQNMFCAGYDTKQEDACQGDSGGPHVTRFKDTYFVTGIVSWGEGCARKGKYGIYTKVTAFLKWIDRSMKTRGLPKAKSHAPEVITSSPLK

Tests used:
[1] = molecular target: Factor X (Enzyme Research Laboratories) (UniProt P00742); assay: ELISA, plate-coated Factor X
[2] = molecular target: Factor X (Enzyme Research Laboratories) (UniProt P00742); assay: ELISA, plate-coated Factor X 1 µg/ml, absorbance at 405 nm

- binding [1]: binds
- binding [2]: binds
B1: humanized B26 antibody (hB26-F123e4) (antibody, V domains shown)
VH: QVQLVQSGPDVKKPGASVKVSCKASGYMFSDNNMDWARQAPGQGLEWMGDINTKSGGSIYNQKFKGRVIMTIDKSTGTAYMELRSLRSDDTAIYYCARRRSYGYYFDYWGQGTLVTVSS
VL: DIVLTQSQKFMSTSVGDRVSITCKASQNVGTAVAWYQQKPGQSPKALIYSASYRYSGVPDRFTGSGSGTDFTLTISNVQSEDLAEYFCQQYNSYPLTFGAGTKLEIKR
modifications: N-terminal glutamine assumed to be pyroglutamylated (Pyr(Q) at H1)
